Laboratory results published in PubChem BioAssay AID504582 (Broad Institute, 2011).
Out of some 340,000 compounds screened, about 2,300 (0.68%) were called active. This list was built around the results that the source calls inconclusive (neither active nor inactive); the mix of calls is not that of the screen. Rule as the data show it: active = growth rescue above about 28% (passing the limit was not always enough); inconclusive = no clear call, values can overlap the other calls.

experiment: rescue of yeast from PfHsp40 toxicity, primary screen, S. cerevisiae, ATP luminescence (AID 504582);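 also: yeast W303a lacking pdr1 and pdr3 grown in galactose medium; growth measured after three days at 30 °C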; details: S. cerevisiae expressing PfHsp40, growth rescue, at 12.5 µM, stronger effect = higher value

Row | SMILES | growth rescue
1 | O=C(c1ccc(-c2ccccc2)cc1)C1CCCN(C(=O)c2cncs2)C1 (configuration not stated) | active: 373%
2 | CCCCn1c(NS(=O)(=O)c2ccccc2)c(S(=O)(=O)c2ccc(C)cc2)c2nc3ccccc3nc21 | inactive: -0.674%
3 | Cc1cccc(-c2c3c(nc4c2c(=O)n(C)c(=O)n4C)-c2ccccc2C3O)c1 (configuration not stated) | inconclusive: 35.5%
4 | CC(=O)c1ccc(NC(=O)C2=CC(c3ccco3)=NS(=O)(=O)N2C)cc1 | inactive: 0.469%
5 | CCOc1cc(/C=C2\C(=O)N(c3nc(-c4ccc(Br)cc4)cs3)N=C2c2ccccc2)ccc1O | inconclusive: 87.9%
6 | C=Cc1cc2c(cc1O)CCC1C2CCC2(C)C(O)CCC12 (configuration not stated) | inconclusive: 54.9%
7 | Cc1cc(N2CCN(C)CC2)nc2ccc(NC(=S)NCCCN3CCN(C)CC3)cc12 | inconclusive: 60.3%
8 | CSCCC(NC(=O)OC(C)(C)C)C(=O)Oc1ccc2c(=O)c(-c3ccc4c(c3)OCCO4)coc2c1 (configuration not stated) | inactive: 0.561%
9 | COc1cc([N+](=O)[O-])cc(/C=N/NC(=O)c2cc(-c3ccccc3)nc3ccccc23)c1O | inconclusive: 58.9%
10 | Cc1cccc(N(CC(=O)NC(C)C)C(=O)CCC(=O)Nc2ccccn2)c1 | inconclusive: 28.6%
11 | CCOC(=O)c1[nH]c2ccc(OC)cc2c1NC(=S)N1CCN(c2ccc(F)cc2)CC1 | inconclusive: 56.3%
12 | O=C(Nc1nc(-c2ccccn2)cs1)c1cc2ccccc2o1 | inactive: 14.4%
13 | COc1ccccc1N(Cc1ccccc1)S(=O)(=O)c1cccc(C(=O)Nc2ccccn2)c1 | inconclusive: 31.6%
14 | COc1ccc(OC)c(CC(NC(C)=O)C(=O)NC2CCN(c3nc(OC)nc(OC)n3)CC2)c1 (configuration not stated) | inconclusive: 47.4%
15 | O=C1/C(=C\c2ccc(O)c(O)c2)SC(=S)N1Cc1ccccc1 | inactive: 8.21%
16 | COc1ccc(OC)c(CNCCc2ccc(OC)c(OC)c2)c1 | inconclusive: 31.5%
17 | N#Cc1nc(-c2cccs2)oc1NCc1ccc(Cl)cc1 | inconclusive: 39.5%
18 | Nc1nc(-c2ccccc2)c(N=Nc2cccc3ccccc23)s1 | inactive: -0.357%
19 | COCCCNS(=O)(=O)c1ccc(OC)c(Cl)c1Cl | inconclusive: 27.6%
20 | CC(C)(C)NCC(O)COc1cccc2c1CCC(=O)N2 (configuration not stated) | inconclusive: 26.9%
21 | CCC(=O)c1ccccc1OCCSc1nc(C)cc(=O)[nH]1 | inconclusive: 25.6%
22 | COc1cccc(CC2(CO)CCN(Cc3ccc4cccc(F)c4n3)CC2)c1 | inconclusive: 86%

Exported with each value named: 4 of the compounds above.
Cc1cc(N2CCN(C)CC2)nc2ccc(NC(=S)NCCCN3CCN(C)CC3)cc12
  growth rescue: inconclusive: 60.3%
CSCCC(NC(=O)OC(C)(C)C)C(=O)Oc1ccc2c(=O)c(-c3ccc4c(c3)OCCO4)coc2c1 (configuration not stated)
  growth rescue: inactive: 0.561%
COc1cc([N+](=O)[O-])cc(/C=N/NC(=O)c2cc(-c3ccccc3)nc3ccccc23)c1O
  growth rescue: inconclusive: 58.9%
Cc1cccc(N(CC(=O)NC(C)C)C(=O)CCC(=O)Nc2ccccn2)c1
  growth rescue: inconclusive: 28.6%

Later entries.

Row | SMILES | growth rescue
23 | CCOC(=O)C1CCCN(C(=O)c2cc(Nc3ccc(OC)cc3)nc3ccccc23)C1 (configuration not stated) | inactive: 4.42%
24 | O=C(NC1CCCc2c1cnn2-c1cc(F)cc(F)c1)c1cc[n+]([O-])cc1 (configuration not stated) | inactive: -1.08%
25 | O=C(N/N=C/c1c(O)n(-c2ccc(Cl)cn2)c(=O)c2ccccc12)c1ccncc1 | active: 28.8%
26 | CCOc1ccccc1CN1CCC(N2CCC(C(=O)NC3CC3)CC2)CC1 | active: 30.3%
27 | OCCCn1c(C2CCCN2c2nc(-c3ccc(F)cc3)cs2)nc2cc(Cl)c(Cl)cc21 (configuration not stated) | inconclusive: 41.1%
28 | Cc1[nH]n(C(N)=S)c(=O)c1N=Nc1ccccc1C(F)(F)F | inconclusive: 27.2%
29 | CCC(CO)Nc1ncnc2c1cnn2-c1ccc(Cl)cc1 (configuration not stated) | inactive: -0.514%
30 | Cc1ccc(Cc2c(C)c(C#N)c3[nH]c4ccccc4n3c2=O)cc1 | inconclusive: 92.5%
31 | COC(=O)C1=C(c2cc3ccccc3s2)C[C@@H]2CC[C@H]1N2C(=O)N1CCCC1 | inconclusive: 28.6%
32 | O=C(CN1C(=O)c2ccccc2C1=O)Nc1cc(C(=O)O)cc(C(=O)O)c1 | inconclusive: 25.9%
33 | Oc1ccccc1-c1cc(-c2cccc(F)c2)n[nH]1 | active: 193%
34 | O=C(NNC1=C(C(=O)C(F)(F)F)CCC1)c1ccccc1O | inconclusive: 40.7%
35 | CCN(CC)CCN(C(=O)c1cc2ccccc2cc1OC)c1nc2ccc(OC)cc2s1 | inactive: -0.161%
36 | Cc1ccc(O)c(C(=O)c2cnc3onc(-c4ccc(F)cc4)c3c2)c1 | inconclusive: 28.4%
37 | COC(=O)COc1ccc(-c2ccccc2)cc1C=O | active: 64.3%
38 | O=C(N/N=C/C=C/c1ccccc1)c1cccc(Br)c1 | inconclusive: 44.3%
39 | CC(Sc1ccc(Cl)cc1)C(=O)NNC(=O)c1ccccc1O (configuration not stated) | inconclusive: 56.4%
40 | C/C(=N\NC(=O)c1cc(-c2ccncc2)nc2ccccc12)c1ccc(OC(F)F)cc1 | inactive: -0.615%
41 | Cc1ccc(OC(=O)CCN2C(=O)c3ccccc3C2=O)cc1C | inactive: 0.619%
42 | COc1ccc(N(CC(=O)Nc2cccc(C(=O)O)c2)S(=O)(=O)c2c(C)noc2C)cc1 | inconclusive: 37%
43 | Cc1cc(C(=O)CSc2nc(N)cc(=O)[nH]2)c(C)n1CC1CCCO1 (configuration not stated) | inactive: -0.764%
44 | COc1ccc2cc(-c3cc(C(=O)OCC(=O)Nc4c(C)n(C)n(-c5ccccc5)c4=O)c4ccccc4n3)ccc2c1 | inconclusive: 35.6%

Row | SMILES | growth rescue
45 | COC(=O)c1cc(OC)c(OC)cc1NC(=O)CN1C(=O)c2ccccc2C1=O | inconclusive: 60.3%
46 | COc1ccc(C(=O)Nc2ccccc2C(=O)O)cc1Cl | inactive: 0.593%
47 | Cc1ccc(-c2nc3c(Cl)cc(Cl)cc3c(=O)n2O)cc1 | inconclusive: 112%
48 | Cn1nnc2c(NCc3ccco3)nccc21 | inactive: -0.59%
49 | CCOc1ccc(C(=O)N/N=C(\c2ccccc2)c2ccccn2)cc1 | inconclusive: 202%
50 | O=C(Nc1cc(Oc2ccc(Cl)cc2)cc([N+](=O)[O-])c1)c1ccco1 | active: 352%
51 | Cc1nc2ccccc2c(=O)n1NC(=O)c1ccccc1F | inconclusive: 33.6%
52 | CC1CCN(C(=O)Cn2cnc3c(cnn3C(C)(C)C)c2=O)CC1 | inconclusive: 57.8%
53 | O=C1CNC(=S)N1Cc1ccc(Cl)cc1 | inconclusive: 59.7%
54 | Cc1cccc(NC(=O)CSc2nnc(C3CC3)n2CC2CCCO2)c1 (configuration not stated) | inactive: -0.217%
55 | Nc1ncc2[nH]cnc2n1 | inconclusive: 32.6%
56 | O=C(Nc1cccc2ccccc12)C1CCN(C(=O)NCc2ccccc2)CC1 | inactive: 1.5%
57 | COc1ccc(-c2csc(Nc3ncccc3C)n2)cc1 | inconclusive: 113%
58 | Cc1ccc(/C=N/Nc2nc3ccccc3s2)o1 | inactive: 7.76%
59 | O=C(Nc1nnc(SCc2ccc(F)cc2)s1)c1ccccn1 | active: 161%
60 | Cc1csc(-c2coc3cc(O)cc(C)c3c2=O)n1 | inconclusive: 35.1%
61 | COC1=C(Nc2ccc(C)cc2)C(=O)c2ccccc2C1=O | inactive: 1.51%
62 | COc1cc(C2C(C#N)=C(N)OC3=C2C(=O)CCC3)cc2c1OCO2 (configuration not stated) | inconclusive: 47.6%
63 | O=S1(=O)CCOC[C@H](CC2CCCCC2)N1Cc1cccc(C(F)(F)F)c1 | inconclusive: 26.1%
64 | O=C1C=CC(=O)N1c1ccc(Nc2ccccc2)cc1 | active: 236%
65 | CCOC(=O)c1c2c(n(-c3ccc(OC)cc3)c1C)C(=O)C(=O)c1ccccc1-2 | active: 85.3%
66 | O=C(NCc1ccc(F)cc1)c1cnc(Cl)c(Cl)c1 | inconclusive: 40.7%

Row | SMILES | growth rescue
67 | CCS(=O)(=O)c1ccc(N=Nc2ccc(O)c3ncccc23)c(OC)c1 | active: 214%
68 | Cc1[nH]nc(-c2ccc(O)cc2O)c1Oc1ccccc1 | inactive: 1.33%
69 | CC(C)c1[nH]nc2c1C(C(C)C)C(C#N)=C(N)O2 (configuration not stated) | inactive: -1.18%
70 | CCOc1ccc(-c2c(=O)n(O)c3ccccc3[n+]2[O-])cc1 | inconclusive: 59.5%
71 | O=C(NC(=S)Nc1ccccc1Br)C1CCCCC1 | inconclusive: 27.9%
72 | Cc1cc(C)n(CC(=O)NC2CCCCC2)n1 | inconclusive: 25.1%
73 | O=C1NC(=S)N(C2CC2)C(=O)/C1=C/c1ccc2c(c1)CCN2CCCCl | active: 63.3%
74 | Cc1ccc2c(c1C)-c1c(ccc(C)c1C)C(=O)C2=O | active: 171%
75 | Cc1ccccc1CS(=O)(=O)c1nnc([C@H](Cc2ccccc2)NC(=O)OC(C)(C)C)o1 | inconclusive: 171%
76 | C=CCC[C@@H](Cc1ccc(F)cc1)C(=O)OC[C@@H](Cc1c[nH]c2ccccc12)NC(=O)[C@@H](CC=C)CC(=O)NCCO | active: 39.7%
77 | CSc1cc(-c2ccccc2)n(Cc2ccccc2Cl)c(=O)c1C#N | inactive: -0.398%
78 | Cc1ccc(CSc2ncnc3onc(C)c23)cc1 | active: 69.8%
79 | Cc1ccc(C(=O)Nc2nc(-c3ccccc3)c(-c3ccccc3)o2)cc1 | inconclusive: 26.9%
80 | CCN1C(=O)[C@H]2[C@@H](c3ccc(C)cc3)N3C(=O)N(c4ccccc4)C(=O)[C@@]3(CC)[C@H]2C1=O | active: 34.6%
81 | O=C(O)c1cc(O)c2c(c1)[C@H]([C@H]1c3cc(C(=O)O)cc(O)c3C(=O)c3c(O[C@@H]4O[C@H](CO)[C@@H](O)[C@H](O)[C@H]4O)cccc31)c1cccc(OC3O[C@H](CO)[C@@H](O)[C@H](O)[C@H]3O)c1C2=O (some centres not stated) | inconclusive: 28.9%
82 | O=C(CSc1nnc(-c2ccco2)n1Cc1ccco1)NCc1cccs1 | inconclusive: 35.5%
83 | COc1ccc2c(c1)N1CCN=C1N2C | inconclusive: 26.7%
84 | COc1ccc2c(c1)C(=O)CCC2c1ccccc1 (configuration not stated) | inconclusive: 50%
85 | COc1ccc(NC(=O)N(C)C[C@H]2Oc3ccc(NC(=O)Nc4ccc5c(c4)OCO5)cc3C(=O)N([C@H](C)CO)C[C@@H]2C)cc1 | active: 54.3%
86 | O=C(O)c1ccn2c(C(=O)c3ccc(Cl)cc3)c(-c3ccccc3)cc2c1 | active: 71.6%
87 | CCc1ccc(NC(=O)COC(=O)/C=C/c2c(C)nn(C3CCS(=O)(=O)C3)c2Cl)cc1 (configuration not stated) | active: 59.3%
